Assay results published in paper PMC11142916.
For at least one entry, the source does not settle the construct or the ends of the probe. For part of these data: The comparison behind a weaker result is the experiment's own reference, which may not be listed here. For part of these data: At least one verdict was read from the data and is not stated in words by the source.

Tested on: EcoP15I Type III restriction-modification holoenzyme (Mod2Res1) (Escherichia coli)
Assay: stopped-flow HEX anisotropy (dissociation)
Conditions: ATP, heparin trap, prebound, slower dissociation; reversed backbone polarity (3'-GTTTT-5', joined 3'-3' and 5'-5') at positions 22-26 of strand 2; bases written in printed order; anisotropy: 25 nM duplex, 50-75 nM EcoP15I, 2.5 uM heparin, +/- 4 mM ATP; recombinant protein; label: 5'-HEX strand 1; synthetic backbone

| Sequence | binding result |
| --- | --- |
| TGGCTTCAGCAGACCGCAGATACCAAAACTGTCCTTCTATTGACAATTCG (double strand) [TS_Rev] | binds |

Same assay, conditions: ATP, heparin trap, prebound; 5'-phosphate on S117; anisotropy: 25 nM duplex, 50-75 nM EcoP15I, 2.5 uM heparin, +/- 4 mM ATP; recombinant protein; label: 5'-HEX S125

| Sequence | binding result |
| --- | --- |
| TGGCTTCAGCAGACC / GCAGATACCAAAACTGTCCTTCTATTGACAATTCG / CGAATTGTCAATAGAAGGACAGTTTTGGTATCTGCGGTCTGCTGAAGCCA [38N/38] | binds |

Same assay, conditions: ATP, heparin trap, prebound; 5'-phosphate on S119; anisotropy: 25 nM duplex, 50-75 nM EcoP15I, 2.5 uM heparin, +/- 4 mM ATP; recombinant protein; label: 5'-HEX S20

| Sequence | binding result |
| --- | --- |
| TGGCTTCAGCAGACCGCAGATACCAAAACTGTCCTTCTATTGACAATTCG / CGAATTGTCAATAGAAGGACAGTTTTGGTATCTGC / GGTCTGCTGAAGCCA [38/38N] | binds |

Same assay, conditions: ATP, heparin trap, prebound; anisotropy: 25 nM duplex, 50-75 nM EcoP15I, 2.5 uM heparin, +/- 4 mM ATP; recombinant protein; label: 5'-HEX strand 1

| Sequence | binding result |
| --- | --- |
| TGGCTTCAGCAGACCGCAGATACC / TGGTATCTGCGGTCTGCTGAAGCCA [12/12+1T] | binds |
| TGGCTTCAGCAGACCGCAGATACC / TTGGTATCTGCGGTCTGCTGAAGCCA [12/12+2T] | binds |
| TGGCTTCAGCAGACCGCAGATACC / TTTGGTATCTGCGGTCTGCTGAAGCCA [12/12+3T] | binds |
| TGGCTTCAGCAGACCGCAGATACC / TTTTGGTATCTGCGGTCTGCTGAAGCCA [12/12+4T] | binds |
| TGGCTTCAGCAGACCGCAGATACC / TTTTTGGTATCTGCGGTCTGCTGAAGCCA [12/12+5T] | binds |
| TGGCTTCAGCAGACCGCAGATACCT / GGTATCTGCGGTCTGCTGAAGCCA [12+1T/12] | binds |
| TGGCTTCAGCAGACCGCAGATACCTT / GGTATCTGCGGTCTGCTGAAGCCA [12+2T/12] | binds |
| TGGCTTCAGCAGACCGCAGATACCTTT / GGTATCTGCGGTCTGCTGAAGCCA [12+3T/12] | binds |
| TGGCTTCAGCAGACCGCAGATACCTTTT / GGTATCTGCGGTCTGCTGAAGCCA [12+4T/12] | binds |
| TGGCTTCAGCAGACCGCAGATACCTTTTT / GGTATCTGCGGTCTGCTGAAGCCA [12+5T/12] | binds |

Same assay, conditions: ATP, heparin trap, prebound; reversed backbone polarity (3'-AAAAC-5', joined 3'-3' and 5'-5') at positions 25-29 of strand 1; bases written in printed order; anisotropy: 25 nM duplex, 50-75 nM EcoP15I, 2.5 uM heparin, +/- 4 mM ATP; recombinant protein; label: 5'-HEX strand 1; synthetic backbone

| Sequence | binding result |
| --- | --- |
| TGGCTTCAGCAGACCGCAGATACCAAAACTGTCCTTCTATTGACAATTCG (double strand) [MS_Rev] | binds |

Same assay, conditions: heparin trap, MS extension stabilises; anisotropy: 25 nM duplex, 50-75 nM EcoP15I, 2.5 uM heparin, +/- 4 mM ATP; recombinant protein; label: 5'-HEX strand 1

| Sequence | binding result |
| --- | --- |
| TGGCTTCAGCAGACCGCAGATACCA / TATCTGCGGTCTGCTGAAGCCA [13/10] | binds |

Same assay, conditions: heparin trap, TS extension little effect vs 10/10; anisotropy: 25 nM duplex, 50-75 nM EcoP15I, 2.5 uM heparin, +/- 4 mM ATP; recombinant protein; label: 5'-HEX strand 1

| Sequence | binding result |
| --- | --- |
| TGGCTTCAGCAGACCGCAGATA / TGGTATCTGCGGTCTGCTGAAGCCA [10/13] | binds more weakly |

Same assay, conditions: heparin trap, dissociation barely stimulated by ATP; anisotropy: 25 nM duplex, 50-75 nM EcoP15I, 2.5 uM heparin, +/- 4 mM ATP; recombinant protein; label: 5'-HEX strand 1

| Sequence | binding result |
| --- | --- |
| TGGCTTCAGCAGACCGCAGATAC (double strand) [11/11] | binds |
| TGGCTTCAGCAGACCGCAGATACC (double strand) [12/12] | binds |

Same assay, conditions: heparin trap, small stability gain over 10/10; 3'-phosphate strand 1; anisotropy: 25 nM duplex, 50-75 nM EcoP15I, 2.5 uM heparin, +/- 4 mM ATP; recombinant protein; label: 5'-HEX strand 1

| Sequence | binding result |
| --- | --- |
| TGGCTTCAGCAGACCGCAGATA (double strand) [10(P3')/10] | binds more weakly |

Same assay, conditions: no ATP, heparin trap; anisotropy: 25 nM duplex, 50-75 nM EcoP15I, 2.5 uM heparin, +/- 4 mM ATP; recombinant protein; label: 5'-HEX strand 1

| Sequence | binding result |
| --- | --- |
| TGGCTTCAGCAGACCGCAG (double strand) [7/7] | binds more weakly |
| TGGCTTCAGCAGACCGCAGA (double strand) [8/8] | binds more weakly |
| TGGCTTCAGCAGACCGCAGAT (double strand) [9/9] | binds more weakly |
| TGGCTTCAGCAGACCGCAGATA (double strand) [10/10] | binds more weakly |
| TGGCTTCAGCAGACCGCAGATACCA (double strand) [13/13] | binds |
| TGGCTTCAGCAGACCGCAGATACCAA (double strand) [14/14] | binds |
| TGGCTTCAGCAGACCGCAGATACCAAA (double strand) [15/15] | binds |
| TGGCTTCAGCAGACCGCAGATACCAAAA (double strand) [16/16] | binds |
| TGGCTTCAGCAGACCGCAGATACCAAAAC (double strand) [17/17 HEX] | binds |
| TGGCTTCAGCAGACCGCAGATACCAAAACT (double strand) [18/18] | binds |
| TGGCTTCAGCAGACCGCAGATACCAAAACTG (double strand) [19/19] | binds |
| TGGCTTCAGCAGACCGCAGATACCAAAACTGT (double strand) [20/20] | binds |
| TGGCTTCAGCAGACCGCAGATACCAAAACTGTC (double strand) [21/21] | binds |
| TGGCTTCAGCAGACCGCAGATACCAAAACTGTCC (double strand) [22/22] | binds |
| TGGCTTCAGCAGACCGCAGATACCAAAACTGTCCT (double strand) [23/23] | binds |
| TGGCTTCAGCAGACCGCAGATACCAAAACTGTCCTT (double strand) [24/24] | binds |
| TGGCTTCAGCAGACCGCAGATACCAAAACTGTCCTTC (double strand) [25/25] | binds |
| TGGCTTCAGCAGACCGCAGATACCAAAACTGTCCTTCTATTGACAATTCG (double strand) [38/38] | binds |

Tested on: EcoP15I Type III restriction-modification holoenzyme (Mod2Res1) (Escherichia coli)
Assay: 2-aminopurine fluorescence
Conditions: no ATP; 2-aminopurine replaces A at position 11 of strand 1; 25 C; recombinant protein; label: 2-AP

| Sequence | binding result |
| --- | --- |
| TGGCTTCAGCAGACCGCAGATACCAAAACTGTCCTTCTATTGACAATTCG (double strand) [2-aminopurine 38/38] | binds |

Tested on: EcoP15I Type III restriction-modification holoenzyme (Mod2Res1) (Escherichia coli)
Assay: EMSA
Conditions: 10 nM streptavidin on biotin end, no ATP; 5'-biotin on strand 2; EMSA: 0.1 nM duplex, 100 ng/ul BSA, 20 min, 5% PAGE in TBM with 4 mM MgCl2; recombinant …; label: 5'-32P strand 1

| Sequence | Kd |
| --- | --- |
| TGGCTTCAGCAGACCGCAGATACCAAAAC (double strand) [17/17 biotin (band shift)] | 0.255 nM |

Same assay, conditions: no ATP; 5'-biotin on strand 1; EMSA: 0.1 nM duplex, 100 ng/ul BSA, 20 min, 5% PAGE in TBM with 4 mM MgCl2; recombinant protein; label: 5'-32P strand 2

| Sequence | Kd |
| --- | --- |
| GTGCATACTACAGCAGATACGTTCGGCCAGTACACTCACAACCTTCATACCTGG (double strand) [10/38] | 0.342 nM |
| TACAGCAGATACGTTCGGCCAGTACACTCACAACCTTCATACCTGG (double strand) [2/38] | 0.533 nM |

Same assay, conditions: without streptavidin, no ATP; 5'-biotin on strand 2; EMSA: 0.1 nM duplex, 100 ng/ul BSA, 20 min, 5% PAGE in TBM with 4 mM MgCl2; recombinant protein; label: 5'-32P strand 1

| Sequence | Kd |
| --- | --- |
| TGGCTTCAGCAGACCGCAGATACCAAAAC (double strand) [17/17 biotin (band shift)] | 0.207 nM |
